{"source": "paper PMC12040169", "about": "(PLOS Biology, 2025)", "note": "This is one part of the list."}
{"test_system": "T1, CTL2-GFP (C. trachomatis L2/434/Bu, GFP-expressing)", "T1 construct": "L2/434/Bu, GFP-expressing", "design": "species or system HeLa; Intracellular C. trachomatis growth in HeLa cells, bulk GFP fluorescence relative to DMSO", "settings": "bulk GFP, single well; 28.5 h, 10 µM; inhibitor", "units": {"% of control remaining": "%"}}
{"smiles": "CC(C)c1ccc(C(C)NC(=O)Cn2cccc(C(=O)Nc3ccc(F)cc3)c2=O)cc1", "note": "(stereo not shown) [CBK286043]", "% of control remaining": 131.112}
{"smiles": "CN1CCN(CC(=O)C(C#N)c2ccccc2)CC1", "note": "(stereo not shown) [CBK269270]", "% of control remaining": 156.741}
{"smiles": "COc1ccc(C)cc1C1(CNC(=O)C2CCCC2N)CCOCC1", "note": "(stereo not shown) [CBK304308C]", "% of control remaining": 110.119}
{"smiles": "COC(=O)c1cc(S(=O)(=O)NC2CCCc3ccccc32)cn1C", "note": "(stereo not shown) [CBK304616]", "% of control remaining": 74.0558}
{"smiles": "CC(C)(C)OC(=O)n1cccc1-c1cncc(-c2ccc(C(=O)N3CCOCC3)cc2)n1", "note": "[CBK138520]", "% of control remaining": 107.361}
{"smiles": "Cc1ccccc1CSCC(=O)N1CCN(c2ccccc2)CC1", "note": "[CBK058577]", "% of control remaining": 131.393}
{"smiles": "O=C(O)c1nccnc1-c1ccc(COc2ccccc2)cc1", "note": "[CBK050806]", "% of control remaining": 124.187}
{"smiles": "Brc1cn2ccnc2c(NCC2CC2)n1", "note": "[CBK037432]", "% of control remaining": 174.423}
{"smiles": "CC#Cc1cn([C@H]2C[C@@H](O)[C@@H](CO)O2)c(=O)nc1N", "note": "[CBK201257]", "% of control remaining": 129.57}
{"smiles": "CC(C)[C@@H](CO)NC(=O)c1cnc(-c2cccc(C(F)(F)F)c2)c(-c2cccnc2)c1", "note": "[CBK037520]", "% of control remaining": 120.473}
{"smiles": "NCCCOc1nc2ccccc2nc1N1CCCC1", "note": "[CBK115287]", "% of control remaining": 100}
{"smiles": "CC(C)C(NC(=O)c1cc2c([nH]c1=O)CCC2)c1ccc(F)cc1", "note": "(stereo not shown) [CBK281662]", "% of control remaining": 111.122}
{"smiles": "OCC1CCCN1c1cncc(-c2ccc3c(c2)OCO3)n1", "note": "(stereo not shown) [CBK065908]", "% of control remaining": 107.896}
{"smiles": "CC(=O)Nc1ccc(S(=O)(=O)N2CCN(c3ccc([N+](=O)[O-])c(NC4CC4)c3)CC2)cc1", "note": "[CBK264439]", "% of control remaining": 128.176}
{"smiles": "N=C(N)CCCOc1ccccc1-c1ccccc1", "note": "[CBK058057]", "% of control remaining": 93.1206}
{"smiles": "O=C(Nc1ccc2cc(Br)cnc2n1)C(F)(F)F", "note": "[CBK063313]", "% of control remaining": 115.483}
{"smiles": "COC(=O)[C@H]1CN(C(=O)c2cnn(C)c2C)C[C@@H]1c1ccc(F)cc1", "note": "[CBK283721]", "% of control remaining": 137.249}
{"smiles": "Clc1cc(Nc2cccc(OCc3ccccc3)c2)n2nccc2n1", "note": "[CBK037109]", "% of control remaining": 129.452}
{"smiles": "COc1ccc(C=CC(=O)Nc2sc3c(c2C(=O)O)CCCC3)cc1OC", "note": "[CBK296103]", "% of control remaining": 5.887}
{"smiles": "Cc1cc(C)cc(C(=O)N2CCC(NC(=O)c3cnn(C)c3)CC2)c1", "note": "[CBK305723]", "% of control remaining": 104.521}
{"smiles": "COc1ccc(Nc2cccc(-c3ccc(CCC(=O)O)cc3)n2)cc1", "note": "[CBK036943]", "% of control remaining": 160.921}
{"smiles": "Cc1onc(-c2ccc(Cl)cc2)c1C(=O)N1CCN(C2CCN(C)CC2)CC1", "note": "[CBK149087]", "% of control remaining": 78.2025}
{"smiles": "CCCc1ccc(S(=O)(=O)N2CCN(CC(=O)Nc3cc(C(C)C)no3)CC2)cc1", "note": "[CBK295629]", "% of control remaining": 122.378}
{"smiles": "Cc1ccc2c(c1)cc(C)c1nn(CC(=O)N3CCCC3)c(=O)n12", "note": "[CBK283872]", "% of control remaining": 114.955}
{"smiles": "OC12CCCON1OC(c1ccccc1)C2", "note": "(stereo not shown) [CBK006752]", "% of control remaining": 125.714}
{"smiles": "O=C(O)c1cccc(CSc2nnc(-c3ccncc3)o2)c1", "note": "[CBK266310]", "% of control remaining": 154.118}
{"smiles": "Cc1ccc(S(=O)(=O)NC(C)(C)CN2CCN(C(c3ccccc3)c3ccccc3)CC2)cc1", "note": "[CBK262799]", "% of control remaining": 132.306}
{"smiles": "Cc1cccc(-n2ncc3c(=O)n(CC(=O)NC4CCCCC4)cnc32)c1C", "note": "[CBK287694]", "% of control remaining": 142.527}
{"smiles": "Cc1ccc2ncnc(NC(CC(C)C)C(=O)O)c2c1", "note": "(stereo not shown) [CBK275388]", "% of control remaining": 127.659}
{"smiles": "C[C@H](Nc1cncc(-c2cccnc2)n1)c1ccccc1", "note": "[CBK065807]", "% of control remaining": 166.147}
{"smiles": "COc1cccc(C2=NO[C@@](CC(=O)O)(C(=O)NCc3ccccc3)C2)c1OC", "note": "[CBK286641]", "% of control remaining": 118.113}
{"smiles": "O=C(N/N=C/c1ccc(OC(=O)c2cccs2)cc1)c1ccccn1", "note": "[CBK262178]", "% of control remaining": 87.3931}
{"smiles": "O=C(CSCc1ccccc1)Nc1ccc2c3c(cccc13)CC2", "note": "[CBK264916]", "% of control remaining": 117.332}
{"smiles": "CC(=O)NC1(c2ccccc2)CCN(C(=O)Nc2ccccc2-c2ccccc2)CC1", "note": "[CBK286288]", "% of control remaining": 114.928}
{"smiles": "Cc1cc(NC(=O)CN(C)CCNC(=O)C2CCCC2)no1", "note": "[CBK305237]", "% of control remaining": 89.8564}
{"smiles": "Oc1ccc(NCc2ccc(OCc3cccs3)cc2)cc1", "note": "[CBK266586]", "% of control remaining": 156.974}
{"smiles": "CC(C)NC(=O)c1sc2ccccc2c1C1CCN(C(=O)CCc2ccccc2)C1", "note": "(stereo not shown) [CBK285874]", "% of control remaining": 118.959}
{"smiles": "Cc1ccc(S(N)(=O)=O)cc1N", "note": "[CBK024851]", "% of control remaining": 121.451}
{"smiles": "O=C(NC1Cc2ccccc2C1)c1ccno1", "note": "[CBK200358]", "% of control remaining": 117.912}
{"smiles": "O=C(CCNS(=O)(=O)c1ccccc1Cl)N1CCN(C(=O)C2CC2)CC1", "note": "[CBK306025]", "% of control remaining": 126.004}
{"smiles": "CCC(O)CN1CCCC(c2nc3cc(C)ccc3[nH]2)C1", "note": "(stereo not shown) [CBK304854]", "% of control remaining": 74.7796}
{"smiles": "CS(=O)(=O)N(CC(=O)NCc1ccccn1)c1ccc2c(c1)OCO2", "note": "[CBK269385]", "% of control remaining": 122.847}
{"smiles": "CC(C)(C)c1nsc(NC2CCCCCC2)n1", "note": "[CBK075061]", "% of control remaining": 96.1166}
{"smiles": "O=C(Nc1cccc(CCc2ccccn2)c1)c1ccc([N+](=O)[O-])cc1", "note": "[CBK269653]", "% of control remaining": 96.2359}
{"smiles": "c1csc(COc2nccnc2-c2ccsc2)c1", "note": "[CBK106770]", "% of control remaining": 93.3705}
{"smiles": "C#CCOC(=O)NC(=O)c1csnn1", "note": "[CBK006685]", "% of control remaining": 115.447}
{"smiles": "COc1ccc([C@@]23CC[C@@H](NC(=O)Nc4ccc(C)c(F)c4F)C[C@@H]2N(C)CC3)cc1OC", "note": "[CBK073686T]", "% of control remaining": 115.777}
{"smiles": "COc1cccc2cc(-c3cncn3CCCC(C)(C)CO)oc12", "note": "[CBK281817]", "% of control remaining": 86.0192}
{"smiles": "Cc1csc2c(C3CCN(C(=O)c4ccnn4C)CC3)nc(C)n12", "note": "[CBK285249]", "% of control remaining": 125.956}
{"smiles": "COc1cc(/C=N/NC(=O)c2ccncc2)ccc1OCc1ccc(Cl)cc1", "note": "[CBK262454]", "% of control remaining": 90.2254}
{"smiles": "COc1ccc(OCCNC(=O)c2cc(Br)cnc2N2CCOCC2)cc1", "note": "[CBK076214]", "% of control remaining": 162.158}
{"smiles": "O=C(C1=C(O)C(=O)N(Cc2cccnc2)C1c1cccnc1)c1cccs1", "note": "(stereo not shown) [CBK264547]", "% of control remaining": 117.596}
{"smiles": "O=S(=O)(NCC(c1ccccc1)n1cc(-c2ccccc2)nn1)c1ccccc1", "note": "(stereo not shown) [CBK268244]", "% of control remaining": 153.777}
{"smiles": "FC(F)(F)c1cccc(CC2CSC(=S)N2)c1", "note": "(stereo not shown) [CBK022895]", "% of control remaining": 76.4094}
{"smiles": "Cc1cc(C)n(-c2cccc(C(=O)NCCn3ccnc3)c2)n1", "note": "[CBK281585]", "% of control remaining": 100.617}
{"smiles": "CC(C)(CN1CCCC1)NC(=O)N1CCN(Cc2cccc(O)c2)CC1", "note": "[CBK307380]", "% of control remaining": 135.413}
{"smiles": "CCN(CCc1ccccn1)S(=O)(=O)c1ccc(OC(F)(F)F)cc1", "note": "[CBK044968]", "% of control remaining": 54.3492}
{"smiles": "CN1CCN(S(=O)(=O)c2ccc(N3CCOCC3)nc2)CC1", "note": "[CBK062434]", "% of control remaining": 131.6}
{"smiles": "c1ccc2sc(SCc3nc4c5c6c(sc5ncn4n3)CCCC6)nc2c1", "note": "[CBK262923]", "% of control remaining": 116.444}
{"smiles": "O=C(CCN1CCN(CCO)CC1)Nc1ccc2c(c1)CCC2", "note": "[CBK264262C]", "% of control remaining": 111.39}
{"smiles": "O=C(N/N=C/c1ccccc1O)c1cccc(C(=O)N/N=C/c2ccccc2O)n1", "note": "[CBK261459]", "% of control remaining": 96.7113}
{"smiles": "O=C(CC(CN1CCN(CC(=O)N2CCCC2)CC1)C(=O)O)Nc1ccccc1", "note": "(stereo not shown) [CBK286844]", "% of control remaining": 121.06}
{"smiles": "Cc1ccc(-c2csc(CC#N)n2)cc1", "note": "[CBK047576]", "% of control remaining": 115.401}
{"smiles": "O=C1NC/C=C/CC2(CCN(Cc3ccc(Cl)cn3)CC2)C(=O)NCCOc2ccccc21", "note": "[CBK292008]", "% of control remaining": 166.146}
{"smiles": "Cc1nn(CCC#N)c2nc(-c3ccc(F)cc3)cc(C(=O)O)c12", "note": "[CBK296974]", "% of control remaining": 126.361}
{"smiles": "CCn1c(C)nc2cc(NC(=O)Cn3cnc4ccccc43)ccc21", "note": "[CBK281832]", "% of control remaining": 138.382}
{"smiles": "O=C(Nc1cc(Oc2cncc(Cl)c2)cc([N+](=O)[O-])c1)c1nn2c(C(F)(F)F)cc(-c3cccs3)nc2c1Cl", "note": "[CBK262585]", "% of control remaining": 98.8036}
{"smiles": "CC1(C)Cc2c(cnn2-c2ccc(F)cc2)C(N)C1", "note": "(stereo not shown) [CBK288200]", "% of control remaining": 143.843}
{"smiles": "COCCN1CCN(c2cncc(-c3ccc(O)cc3)n2)CC1", "note": "[CBK126951T]", "% of control remaining": 130.276}
{"smiles": "Cc1c(C(=O)N2CCCCC2C(N)=O)nnn1Cc1ccc(F)cc1F", "note": "(stereo not shown) [CBK304425]", "% of control remaining": 147.503}
{"smiles": "CC(C)(C)NC(=O)CN1CCN(C(=O)CSc2n[nH]c(=O)n2C2CC2)CC1", "note": "[CBK295641]", "% of control remaining": 118.453}
{"smiles": "CCOC(=O)c1c(NC(=O)c2cc(-c3ccc(Cl)s3)nc3ccccc23)sc(C)c1CC", "note": "[CBK262657]", "% of control remaining": 110.94}
{"smiles": "Fc1ccc(-c2noc([C@@H]3CCCN3Cc3ncc[nH]3)n2)nc1", "note": "[CBK288897]", "% of control remaining": 109.121}
{"smiles": "COc1cc(OC)c(C(C)=O)c(OCCOc2nccnc2N2CCNCC2)c1", "note": "[CBK013497T]", "% of control remaining": 107.566}
{"smiles": "Nn1c(=O)c2ccccc2n2c(SCC(=O)N(c3ccccc3)c3ccccc3)nnc12", "note": "[CBK266621]", "% of control remaining": 166.655}
{"smiles": "CCCC(=O)Nc1ccc(N2CCNCC2)c2ccccc12", "note": "[CBK024619T]", "% of control remaining": 133.818}
{"smiles": "CN(C)C(=O)c1cc(-c2ccccc2)cnc1N(C)S(C)(=O)=O", "note": "[CBK076473]", "% of control remaining": 103.826}
{"smiles": "CC(CC(=O)NC1(C#Cc2nccs2)CCCCC1)n1ccnc1", "note": "(stereo not shown) [CBK284746]", "% of control remaining": 79.2689}
{"smiles": "CN(C)[C@@H]1CN(Cc2ccccc2O)C[C@H]1c1cn(C)c2ccccc12", "note": "[CBK284895]", "% of control remaining": 127.131}
